Our source for the binding values is PMC3796317.

Amino acid sequences for entries named in this document (tags omitted).
UniProt P30052: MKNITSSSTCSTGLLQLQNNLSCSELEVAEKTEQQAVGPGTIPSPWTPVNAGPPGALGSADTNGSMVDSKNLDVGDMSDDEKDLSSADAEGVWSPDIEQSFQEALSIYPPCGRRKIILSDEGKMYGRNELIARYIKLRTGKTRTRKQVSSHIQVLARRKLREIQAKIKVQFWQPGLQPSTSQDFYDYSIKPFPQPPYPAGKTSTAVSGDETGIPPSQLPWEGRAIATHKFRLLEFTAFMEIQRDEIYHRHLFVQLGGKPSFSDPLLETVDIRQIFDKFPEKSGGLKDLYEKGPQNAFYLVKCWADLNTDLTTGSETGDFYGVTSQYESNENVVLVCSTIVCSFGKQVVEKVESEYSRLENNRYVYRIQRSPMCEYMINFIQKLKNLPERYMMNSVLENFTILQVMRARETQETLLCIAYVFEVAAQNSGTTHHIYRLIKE
UniProt P25439: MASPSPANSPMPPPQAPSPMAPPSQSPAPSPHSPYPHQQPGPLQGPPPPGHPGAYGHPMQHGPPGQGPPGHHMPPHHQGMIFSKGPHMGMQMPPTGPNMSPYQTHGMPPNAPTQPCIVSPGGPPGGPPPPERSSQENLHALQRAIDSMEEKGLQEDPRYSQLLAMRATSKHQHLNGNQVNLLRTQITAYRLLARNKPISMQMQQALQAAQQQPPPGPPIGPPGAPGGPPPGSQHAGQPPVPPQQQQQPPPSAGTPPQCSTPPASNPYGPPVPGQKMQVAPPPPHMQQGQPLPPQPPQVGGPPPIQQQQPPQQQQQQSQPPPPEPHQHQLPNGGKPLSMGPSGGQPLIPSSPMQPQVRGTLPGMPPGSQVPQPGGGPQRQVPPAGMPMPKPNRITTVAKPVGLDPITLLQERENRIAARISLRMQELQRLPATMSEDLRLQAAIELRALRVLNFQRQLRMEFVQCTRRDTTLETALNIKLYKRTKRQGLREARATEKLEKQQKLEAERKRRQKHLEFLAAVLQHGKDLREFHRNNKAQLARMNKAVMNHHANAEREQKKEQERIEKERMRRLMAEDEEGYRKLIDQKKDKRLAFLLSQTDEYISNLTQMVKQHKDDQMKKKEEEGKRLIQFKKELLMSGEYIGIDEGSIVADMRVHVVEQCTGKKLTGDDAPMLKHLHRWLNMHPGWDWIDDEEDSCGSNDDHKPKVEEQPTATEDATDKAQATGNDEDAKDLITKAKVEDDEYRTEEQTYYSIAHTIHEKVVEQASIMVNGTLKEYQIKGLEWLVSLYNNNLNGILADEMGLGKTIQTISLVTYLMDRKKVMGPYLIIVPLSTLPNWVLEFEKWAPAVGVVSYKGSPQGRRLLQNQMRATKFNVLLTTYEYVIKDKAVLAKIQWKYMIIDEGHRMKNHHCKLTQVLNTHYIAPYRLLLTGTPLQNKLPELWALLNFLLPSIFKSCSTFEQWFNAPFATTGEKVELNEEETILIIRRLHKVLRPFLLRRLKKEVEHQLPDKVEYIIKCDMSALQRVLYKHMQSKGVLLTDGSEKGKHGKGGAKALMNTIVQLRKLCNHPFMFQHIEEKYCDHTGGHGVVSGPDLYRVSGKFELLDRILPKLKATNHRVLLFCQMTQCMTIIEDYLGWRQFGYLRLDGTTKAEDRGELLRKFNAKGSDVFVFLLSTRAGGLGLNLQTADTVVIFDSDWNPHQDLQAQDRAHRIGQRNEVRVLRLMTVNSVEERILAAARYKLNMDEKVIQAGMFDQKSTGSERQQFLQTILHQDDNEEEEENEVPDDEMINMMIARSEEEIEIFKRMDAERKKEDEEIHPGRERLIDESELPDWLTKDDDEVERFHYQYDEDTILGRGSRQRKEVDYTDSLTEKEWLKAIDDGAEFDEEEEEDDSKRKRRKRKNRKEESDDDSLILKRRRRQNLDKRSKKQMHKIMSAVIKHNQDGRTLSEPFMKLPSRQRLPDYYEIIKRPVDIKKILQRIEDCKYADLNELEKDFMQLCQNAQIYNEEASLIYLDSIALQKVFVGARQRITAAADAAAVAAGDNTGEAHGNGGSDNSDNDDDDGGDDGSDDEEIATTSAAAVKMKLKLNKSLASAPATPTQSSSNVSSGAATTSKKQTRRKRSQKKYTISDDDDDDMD
UniProt Q9VF03: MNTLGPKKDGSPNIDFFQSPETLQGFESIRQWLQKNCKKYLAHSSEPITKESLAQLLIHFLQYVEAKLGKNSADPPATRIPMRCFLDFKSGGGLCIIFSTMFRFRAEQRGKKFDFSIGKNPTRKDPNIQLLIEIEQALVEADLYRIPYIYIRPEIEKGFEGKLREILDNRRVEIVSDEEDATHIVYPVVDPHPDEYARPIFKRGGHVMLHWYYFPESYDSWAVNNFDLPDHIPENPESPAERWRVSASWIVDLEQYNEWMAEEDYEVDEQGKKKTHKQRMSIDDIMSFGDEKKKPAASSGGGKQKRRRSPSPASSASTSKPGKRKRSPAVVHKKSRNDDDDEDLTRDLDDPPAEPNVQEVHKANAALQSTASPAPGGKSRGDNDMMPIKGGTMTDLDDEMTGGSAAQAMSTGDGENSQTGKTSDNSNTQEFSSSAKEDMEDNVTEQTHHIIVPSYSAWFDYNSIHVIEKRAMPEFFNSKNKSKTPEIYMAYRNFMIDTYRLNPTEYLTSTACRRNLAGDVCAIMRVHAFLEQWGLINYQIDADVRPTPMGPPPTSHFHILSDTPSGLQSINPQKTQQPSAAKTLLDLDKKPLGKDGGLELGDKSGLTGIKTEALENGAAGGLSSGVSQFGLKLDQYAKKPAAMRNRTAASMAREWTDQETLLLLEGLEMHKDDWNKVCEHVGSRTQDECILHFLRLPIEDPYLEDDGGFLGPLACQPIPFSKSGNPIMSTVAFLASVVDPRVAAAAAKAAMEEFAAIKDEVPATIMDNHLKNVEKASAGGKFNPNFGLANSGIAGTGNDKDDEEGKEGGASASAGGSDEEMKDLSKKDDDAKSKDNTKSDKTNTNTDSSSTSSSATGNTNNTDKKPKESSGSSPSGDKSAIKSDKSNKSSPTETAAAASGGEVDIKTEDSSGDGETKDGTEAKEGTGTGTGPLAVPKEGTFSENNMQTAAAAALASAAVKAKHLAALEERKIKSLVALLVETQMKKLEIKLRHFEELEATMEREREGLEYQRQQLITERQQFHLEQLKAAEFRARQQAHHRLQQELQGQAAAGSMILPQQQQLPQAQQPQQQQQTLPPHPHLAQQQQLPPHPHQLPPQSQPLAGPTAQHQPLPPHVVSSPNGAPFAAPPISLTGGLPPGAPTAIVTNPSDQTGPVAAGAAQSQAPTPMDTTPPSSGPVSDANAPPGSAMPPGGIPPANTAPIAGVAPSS
UniProt Q8IN94: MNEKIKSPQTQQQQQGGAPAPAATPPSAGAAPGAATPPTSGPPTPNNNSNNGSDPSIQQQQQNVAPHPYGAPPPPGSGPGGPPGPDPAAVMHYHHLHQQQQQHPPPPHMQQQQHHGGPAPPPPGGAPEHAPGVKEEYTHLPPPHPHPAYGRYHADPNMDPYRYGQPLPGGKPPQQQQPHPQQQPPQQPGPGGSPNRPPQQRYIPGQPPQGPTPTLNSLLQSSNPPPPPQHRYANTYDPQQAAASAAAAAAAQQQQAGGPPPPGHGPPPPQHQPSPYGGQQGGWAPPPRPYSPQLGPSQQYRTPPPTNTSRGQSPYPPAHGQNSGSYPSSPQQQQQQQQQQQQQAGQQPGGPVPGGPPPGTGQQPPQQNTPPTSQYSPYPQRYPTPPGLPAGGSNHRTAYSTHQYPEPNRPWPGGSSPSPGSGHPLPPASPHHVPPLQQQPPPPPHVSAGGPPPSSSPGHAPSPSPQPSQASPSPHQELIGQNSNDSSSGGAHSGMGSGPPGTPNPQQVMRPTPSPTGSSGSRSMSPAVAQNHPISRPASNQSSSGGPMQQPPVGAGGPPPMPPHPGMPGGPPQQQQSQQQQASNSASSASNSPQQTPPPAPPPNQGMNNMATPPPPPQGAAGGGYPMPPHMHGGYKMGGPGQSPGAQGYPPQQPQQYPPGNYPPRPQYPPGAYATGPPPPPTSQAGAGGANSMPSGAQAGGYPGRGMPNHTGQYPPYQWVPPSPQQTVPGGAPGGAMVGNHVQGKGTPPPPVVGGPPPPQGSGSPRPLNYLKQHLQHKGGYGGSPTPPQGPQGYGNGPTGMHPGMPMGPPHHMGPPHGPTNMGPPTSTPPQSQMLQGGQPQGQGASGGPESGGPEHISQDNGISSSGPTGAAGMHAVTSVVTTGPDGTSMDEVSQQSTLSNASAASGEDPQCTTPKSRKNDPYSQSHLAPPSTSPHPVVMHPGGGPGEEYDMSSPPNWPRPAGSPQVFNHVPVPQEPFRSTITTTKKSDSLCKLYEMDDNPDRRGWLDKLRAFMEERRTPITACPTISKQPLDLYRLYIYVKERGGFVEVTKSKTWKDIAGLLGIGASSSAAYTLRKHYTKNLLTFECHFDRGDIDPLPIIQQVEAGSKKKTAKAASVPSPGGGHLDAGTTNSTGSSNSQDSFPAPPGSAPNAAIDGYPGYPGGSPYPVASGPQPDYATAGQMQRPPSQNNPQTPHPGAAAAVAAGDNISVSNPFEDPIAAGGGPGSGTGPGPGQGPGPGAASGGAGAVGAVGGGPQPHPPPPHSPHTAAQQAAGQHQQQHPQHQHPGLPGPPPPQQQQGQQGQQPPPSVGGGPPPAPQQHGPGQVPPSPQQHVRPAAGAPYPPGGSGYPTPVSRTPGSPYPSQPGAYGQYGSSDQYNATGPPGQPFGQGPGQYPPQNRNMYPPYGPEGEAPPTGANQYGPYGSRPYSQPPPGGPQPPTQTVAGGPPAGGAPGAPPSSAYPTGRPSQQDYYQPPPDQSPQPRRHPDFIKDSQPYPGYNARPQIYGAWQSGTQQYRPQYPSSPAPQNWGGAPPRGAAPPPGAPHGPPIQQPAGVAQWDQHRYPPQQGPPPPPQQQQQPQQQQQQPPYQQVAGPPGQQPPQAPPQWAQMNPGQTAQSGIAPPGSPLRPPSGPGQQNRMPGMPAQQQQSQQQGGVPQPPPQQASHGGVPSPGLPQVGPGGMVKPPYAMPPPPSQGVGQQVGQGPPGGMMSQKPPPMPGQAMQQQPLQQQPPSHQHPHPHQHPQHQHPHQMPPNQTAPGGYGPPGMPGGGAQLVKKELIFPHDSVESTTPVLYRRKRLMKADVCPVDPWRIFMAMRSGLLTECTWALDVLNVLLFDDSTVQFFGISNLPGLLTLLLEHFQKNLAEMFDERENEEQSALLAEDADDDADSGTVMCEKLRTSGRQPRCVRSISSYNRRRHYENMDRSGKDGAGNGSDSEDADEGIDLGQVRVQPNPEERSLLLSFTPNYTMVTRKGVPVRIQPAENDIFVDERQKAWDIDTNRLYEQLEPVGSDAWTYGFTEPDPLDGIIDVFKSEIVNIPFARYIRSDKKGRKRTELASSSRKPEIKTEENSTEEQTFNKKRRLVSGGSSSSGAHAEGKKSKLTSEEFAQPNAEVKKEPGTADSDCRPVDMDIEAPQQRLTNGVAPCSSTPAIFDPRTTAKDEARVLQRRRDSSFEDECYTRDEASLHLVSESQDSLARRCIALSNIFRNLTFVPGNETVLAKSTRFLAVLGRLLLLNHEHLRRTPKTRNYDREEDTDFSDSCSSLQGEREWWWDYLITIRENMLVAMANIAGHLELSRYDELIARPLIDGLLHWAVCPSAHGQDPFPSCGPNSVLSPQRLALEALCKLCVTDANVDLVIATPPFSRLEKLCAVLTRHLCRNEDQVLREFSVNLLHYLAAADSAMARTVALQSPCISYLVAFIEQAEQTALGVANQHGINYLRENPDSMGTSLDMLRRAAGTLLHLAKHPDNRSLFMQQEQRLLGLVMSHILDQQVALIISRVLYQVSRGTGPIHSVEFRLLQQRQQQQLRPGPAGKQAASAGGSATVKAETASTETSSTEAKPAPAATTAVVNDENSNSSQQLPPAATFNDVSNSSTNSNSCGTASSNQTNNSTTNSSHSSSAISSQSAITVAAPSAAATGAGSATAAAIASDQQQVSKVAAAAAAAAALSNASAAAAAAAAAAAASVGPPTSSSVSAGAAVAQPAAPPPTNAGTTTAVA

Assay [1] has as its target HA-tagged Sd (HA–Sd) (Drosophila) (UniProt P30052). Description: co-IP; tagged proteins coexpressed in S2 cells (pUAST vectors with ubiquitin-Gal4), immunoprecipitation with anti-tag antibodies and Western blot. On the technique in general: Immunoblotting shows a protein as a band on a membrane.
Assay [2] concerns the target T1, Myc-tagged Yki (Myc–Yki) (Drosophila) (UniProt Q45VV3).
T1 sequence: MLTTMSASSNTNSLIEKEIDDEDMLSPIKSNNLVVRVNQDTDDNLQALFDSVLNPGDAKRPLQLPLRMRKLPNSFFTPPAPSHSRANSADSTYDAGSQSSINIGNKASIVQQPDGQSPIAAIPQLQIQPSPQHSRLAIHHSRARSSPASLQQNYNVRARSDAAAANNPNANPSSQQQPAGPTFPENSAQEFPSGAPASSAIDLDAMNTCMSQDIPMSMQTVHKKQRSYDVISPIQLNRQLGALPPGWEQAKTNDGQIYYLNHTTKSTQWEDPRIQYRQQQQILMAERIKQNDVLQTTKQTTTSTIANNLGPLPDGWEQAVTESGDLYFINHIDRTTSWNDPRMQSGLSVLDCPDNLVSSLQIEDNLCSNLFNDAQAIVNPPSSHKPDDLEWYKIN
Described as above.

The target in assay [3] is Brahma (Brm), endogenous (Drosophila (endogenous in S2 cells)) (UniProt P25439). The assay is described as follows: co-IP; S2 cells transfected with HA–Sd; HA–Sd coimmunoprecipitated with endogenous Brm.
Assay [4] has as its target Mor, coexpressed with Sd in S2 cells (Drosophila) (UniProt Q9VF03). The assay is described as follows: co-IP; tagged proteins coexpressed in S2 cells (pUAST vectors with ubiquitin-Gal4), immunoprecipitation with anti-tag antibodies and Western blot.
Assay [5] has as its target HA-tagged Sd (HA–Sd) (Drosophila) (UniProt P30052). The assay is described as follows: co-IP; S2 cells; Sd with Brm, seen in one direction; the legend does not tell whether Brm was coexpressed or which protein was precipitated.
The target of assay [6] is V5-tagged Brm (Brm–V5) (Drosophila) (UniProt P25439). Description: co-IP; tagged proteins coexpressed in S2 cells (pUAST vectors with ubiquitin-Gal4), immunoprecipitation with anti-tag antibodies and Western blot.

These are yes or no findings as the source states them, for the method shown. Binding seen in cells or lysates may run through a third protein. Some entries that bind do so weakly or less than the wild type. For some of these results: Sequences can lack the tags named with a protein.

“Mor, coexpressed with Sd in S2 cells (from UniProt Q9VF03 1-1209)”: the binding result in assay [1] is recorded as “binds”.

“V5-tagged Brm (Brm–V5) (from UniProt P25439 1-1638)”: the binding result in assay [2] was “binds”.

For the molecule “Osa, coexpressed with Sd in S2 cells (from UniProt Q8IN94 1-2716)”, the binding entry in assay [1] is given as “binds”.

For “HA-tagged Sd (HA–Sd) (from UniProt P30052 1-440)”, the binding entry in assay [3] and in assay [4] was “binds” in each case.

On to “Brm, as in the co-IP with Sd of Figure 4—figure supplement 1A (from UniProt P25439 1-1638)”, for which the binding entry in assay [5] was “binds”.

B1: Myc-tagged Yki (Myc–Yki) (protein, UniProt Q45VV3 1-395)
chain: T1 sequence
As to B1, the binding result in assay [6] is “binds”.
